Results taken from PMC12040169 (PLOS Biology, 2025).
The other results are listed elsewhere or left out.

Tested on: T1, CTL2-GFP (C. trachomatis L2/434/Bu, GFP-expressing)
T1 construct: L2/434/Bu, GFP-expressing
Design: species or system HeLa; Intracellular C. trachomatis growth in HeLa cells, bulk GFP fluorescence relative to DMSO
Details: bulk GFP, single well; 28.5 h, 10 µM; inhibitor

Row | SMILES | % of control remaining [%]
1 | O=C(Cc1ccccc1)Nc1ccccc1C(=O)NCc1cccnc1 [CBK269228] | 127.356
2 | Cc1nc(CCN2CCN(c3ccc4nccn4n3)CC2)cs1 [CBK306932] | 98.084
3 | CSc1cccc(NC(=O)NCCN2CCNC2=O)c1 [CBK057191] | 150.442
4 | COc1nccnc1-c1ccccc1Cl [CBK107000] | 129.058
5 | Cc1ncccc1COC(=O)N1c2ccc(F)cc2CCC1C (centres unmarked) [CBK200139] | 104.3
6 | O=C(/C=C/c1cccc([N+](=O)[O-])c1)Nc1ccc(O)cc1C(=O)O [CBK263615] | 126.349
7 | C=CCNC(=O)c1ccccc1NC(=O)Cc1ccc(Cl)cc1 [CBK270086] | 97.6376
8 | CC1=C(CCN2CCCC(CO)C2)C(C)(C)CCC1 (centres unmarked) [CBK020827] | 105.281
9 | COc1ccc(-c2nccnc2N2CCN(C)CC2)cc1 [CBK038012] | 95.0456
10 | CCC(C)[C@H](NC(=O)N1CCN(C(=O)c2cc3ccccc3[nH]2)CC1)C(=O)O (some centres unmarked) [CBK286725] | 109.303
11 | CC(C)Nc1cncc(Sc2ccccc2O)n1 [CBK091438] | 107.586
12 | FC(F)(F)c1ccnc(Sc2nccs2)n1 [CBK093771] | 100
13 | Cc1cccc(-c2noc([C@@H]3Cc4[nH]cnc4CN3C(=O)CC(C)(C)CC(=O)O)n2)c1 [CBK288961] | 115.424
14 | CCOC(=O)c1cnn(C2CCCN(c3ccc(C#N)nc3)C2)c1 (centres unmarked) [CBK306458] | 121.414
15 | CC1CCC(C(N)=O)CN1C(=O)c1cncc(Br)c1 (centres unmarked) [CBK305773] | 178.352
16 | COC(=O)C1CC(O)CC1C(=O)N1CCCC1 (centres unmarked) [CBK011029] | 119.281
17 | O=C(O)CCc1nc2ccccc2s1 [CBK264071] | 102.638
18 | CN(C)CCN1CCN(c2nc(-c3occc3C=O)cnc2N)CC1 [CBK063917] | 118.442
19 | Cc1nnc(NS(=O)(=O)c2ccc(Br)cc2)s1 [CBK068266] | 102.221
20 | Cc1cc(C)c(C)c(OCCCNC(=O)Cc2c(C)noc2C)c1 [CBK281506] | 123.469
21 | CC(c1cccs1)N(C)C(=O)NC1CCCc2c1cnn2CCO (centres unmarked) [CBK306289] | 87.3658
22 | COc1cc(CN2CCN(C3CCCCC3)CC2)cc(OC)c1OC [CBK263407] | 105.576
23 | CCOC(=O)c1ccc(NC(=O)C(C)Oc2ccccc2C)cc1 (centres unmarked) [CBK268660] | 148.156
24 | O=C(CSc1ccccc1)NCc1ccncc1 [CBK058023] | 148.622
25 | C[C@H]1CN(C(=O)c2cc(C3CC3)no2)[C@@H](C)CN1Cc1ccco1 [CBK281736] | 117.517
26 | Cc1csc2c(C3CCN(C(=O)c4cccnc4)CC3)nc(C)n12 [CBK285242] | 135.776
27 | CCOC(=O)c1sc(Nc2nc(C)cc(OC)n2)nc1C [CBK264822] | 87.4425

Row | SMILES | % of control remaining [%]
28 | CN1CCN(CCC(=O)N/N=C/c2cccc(Br)c2)CC1 [CBK261496] | 99.9569
29 | Cc1[nH]c2ccccc2c1/C=N/c1ccc(S(N)(=O)=O)cc1 [CBK261352] | 36.0942
30 | CCCc1nc(NC(c2cccc(C)n2)C2CC2)c2cnn(C)c2n1 (centres unmarked) [CBK306795] | 132.459
31 | Cc1cccc(-c2csc3c(=O)[nH]c(N4CCC(C(=O)NCCN5CCOCC5)CC4)nc23)c1 [CBK215640] | 110.061
32 | Cc1cccc2c1[nH]c1nc(N/N=C\c3ccc(-c4cccc([N+](=O)[O-])c4)o3)nnc12 [CBK262373] | 114.815
33 | Cc1nc2ncnn2c(C)c1CCC(=O)OCc1ccc(C#N)cc1 [CBK305838] | 101.225
34 | O=[N+]([O-])c1cc(S(=O)(=O)N2CCCCCC2)ccc1NCc1ccccc1 [CBK262804] | 124.5
35 | O=C(c1cccs1)N1CCC(n2c(=O)oc3ccccc32)CC1 [CBK284347] | 128.689
36 | O=C1CN(C(=O)Nc2ccc3c(c2)OCCO3)CCN1 [CBK155860] | 86.7652
37 | Cn1ccnc1CNc1nc(C(C)(C)C)nc2c1cnn2C [CBK306894] | 139.205
38 | Cc1cccc(CC(=O)N2CCC(c3ncc(C(=O)Nc4ccc(F)cc4)c(C)n3)CC2)c1 [CBK285885] | 103.684
39 | CC(=O)Nc1ccc(C(=O)N(Cc2ccccn2)CC2CCCO2)cn1 (centres unmarked) [CBK306784] | 105.844
40 | Cn1ccc(C(=O)N2CCC[C@H](C(=O)c3ccc(F)cc3)C2)n1 [CBK284333] | 91.5936
41 | O=C(CCSc1nc(-c2ccco2)cc(C(F)(F)F)n1)Nc1ccc2c(c1)OCO2 [CBK267627] | 98.6473
42 | Cc1ccc(-c2nc3ncccc3o2)cc1NC(=O)c1cccnc1 [CBK268774] | 172.064
43 | O=C(Cn1c(-c2cccs2)cc2cccnc21)N1CCCCC1 [CBK282619] | 100.056
44 | COc1ccc(C)cc1S(=O)(=O)N1CCc2c(CN3CCOCC3)cccc21 [CBK113630T] | 134.125
45 | CC(C)(C)C(=O)CSc1nnc(Cn2cnc(Cl)c2Cl)o1 [CBK011055] | 145.779
46 | CN(C)CC(C)(C)CNC(=O)c1cc(C(=O)c2ccc(Cl)cc2Cl)c[nH]1 [CBK107416] | 91.5977
47 | COc1ccc([C@@]23CCC(NC(=O)Nc4ccc5c(c4)Cc4ccccc4-5)C[C@@H]2N(C)CC3)cc1OC (some centres unmarked) [CBK047550T] | 115.672
48 | O=C(NC1CCN(CC2(c3ccccc3)CC2)CC1)C1CCOCC1 [CBK285352] | 118.719
49 | N#Cc1ccc(-n2ncc(-c3cccc(C(F)(F)F)c3)n2)cc1 [CBK112675] | 86.0942
50 | O=C(c1cccnc1NCc1ccc2c(c1)OCO2)N1CCNCC1 [CBK156112T] | 127.916
51 | Cc1cccc(-c2cc(C(=O)Nc3sc4c(c3C#N)CCCCCC4)c3ccccc3n2)c1 [CBK262632] | 104.073
52 | COc1ccc(CCNc2nc3c(c(=O)n(C)c(=O)n3C)n2Cc2ccccc2Br)cc1OC [CBK267495] | 123.975
53 | CCCCC(O)C[N+]1(C)CCC(c2ccccc2)CC1 (centres unmarked) [CBK006696I] | 137.306
54 | CCCn1c(SCC(=O)c2ccc(CCNC(C)=O)cc2)n[nH]c1=O [CBK296965] | 130.12

In a second layout: results already given

| Row | SMILES | % of control remaining [%] |
| --- | --- | --- |
| 28 | CN1CCN(CCC(=O)N/N=C/c2cccc(Br)c2)CC1 [CBK261496] | 99.9569 |
| 30 | CCCc1nc(NC(c2cccc(C)n2)C2CC2)c2cnn(C)c2n1 (centres unmarked) [CBK306795] | 132.459 |
| 32 | Cc1cccc2c1[nH]c1nc(N/N=C\c3ccc(-c4cccc([N+](=O)[O-])c4)o3)nnc12 [CBK262373] | 114.815 |
| 33 | Cc1nc2ncnn2c(C)c1CCC(=O)OCc1ccc(C#N)cc1 [CBK305838] | 101.225 |
| 35 | O=C(c1cccs1)N1CCC(n2c(=O)oc3ccccc32)CC1 [CBK284347] | 128.689 |
| 37 | Cn1ccnc1CNc1nc(C(C)(C)C)nc2c1cnn2C [CBK306894] | 139.205 |
| 43 | O=C(Cn1c(-c2cccs2)cc2cccnc21)N1CCCCC1 [CBK282619] | 100.056 |
| 44 | COc1ccc(C)cc1S(=O)(=O)N1CCc2c(CN3CCOCC3)cccc21 [CBK113630T] | 134.125 |
| 45 | CC(C)(C)C(=O)CSc1nnc(Cn2cnc(Cl)c2Cl)o1 [CBK011055] | 145.779 |
| 47 | COc1ccc([C@@]23CCC(NC(=O)Nc4ccc5c(c4)Cc4ccccc4-5)C[C@@H]2N(C)CC3)cc1OC (some centres unmarked) [CBK047550T] | 115.672 |
| 48 | O=C(NC1CCN(CC2(c3ccccc3)CC2)CC1)C1CCOCC1 [CBK285352] | 118.719 |
| 49 | N#Cc1ccc(-n2ncc(-c3cccc(C(F)(F)F)c3)n2)cc1 [CBK112675] | 86.0942 |
| 51 | Cc1cccc(-c2cc(C(=O)Nc3sc4c(c3C#N)CCCCCC4)c3ccccc3n2)c1 [CBK262632] | 104.073 |
| 53 | CCCCC(O)C[N+]1(C)CCC(c2ccccc2)CC1 (centres unmarked) [CBK006696I] | 137.306 |
| 54 | CCCn1c(SCC(=O)c2ccc(CCNC(C)=O)cc2)n[nH]c1=O [CBK296965] | 130.12 |

Next part:

Row | SMILES | % of control remaining [%]
55 | Cc1cc(C)nc(N2CCC(CC(=O)NC(C)CCN3CCCCCC3)CC2)n1 (centres unmarked) [CBK285993] | 132.489
56 | COc1ccc(-c2cnc(NCC3CC3)c(C(=O)NCc3ccccc3SC)c2)cc1 [CBK076437] | 142.242
57 | OCCN(Cc1ccncc1)CC1(c2ccc(Cl)cc2)CC1 [CBK282782] | 94.8399
58 | O=C(O)c1cccc2c1C(=O)N(Cc1cccnc1)C2 [CBK291193] | 87.0019
59 | Cc1cc(C)c2c(N)c(C(=O)C(C)(C)C)sc2n1 [CBK115341] | 92.2771
60 | COc1cc(C(=O)N2CCC3(CC2)CC(=O)c2cc(C)ccc2O3)cc(OC)c1C [CBK167805] | 99.7942
61 | O=C(O)CNS(=O)(=O)c1cccc2cccnc12 [CBK034462] | 131.709
62 | COc1ccc(CCNS(=O)(=O)N(C)C)cc1 [CBK264348] | 100
63 | CCOC(=O)C1(C2CCCCC2)CCN(C(=O)c2cscn2)CC1 [CBK137101] | 108.3
64 | COc1cc(S(=O)(=O)NCc2ccncc2)c(C)cc1C [CBK269988] | 101.812
65 | Cc1ccc(-c2ccccc2CC2(C(=O)O)CCN(Cc3ccccc3F)CC2)c(C)c1 [CBK286418] | 78.4167
66 | COc1ccc(-c2nc3c(n2O)CCc2c-3no[n+]2[O-])cc1OC [CBK262350] | 140.493
67 | Cn1c(=O)c2c(nc(CN3CCOCC3)n2CC(=O)c2ccccc2)n(C)c1=O [CBK269195] | 150.158
68 | O=C(Cn1nnc2ccccc2c1=O)NC1CCN2CCCCC12 (centres unmarked) [CBK305589] | 99.7013
69 | CC(C)[C@@H](CO)Nc1cncc(-c2cccc(Cl)c2)n1 [CBK037261] | 118.912
70 | NC(=O)C1CCN(CC(=O)Nc2ccc([N+](=O)[O-])cc2C(=O)c2ccccc2)CC1 [CBK265782] | 224.745
71 | COc1ccc(C2CCN(C(=O)C3CCCO3)CC2)cc1 (centres unmarked) [CBK285473] | 102.731
72 | Cn1c(=O)c2c(nc(NCc3ccccc3)n2C)n(C)c1=O [CBK139872] | 75.3221
73 | O=C(O)C1CCCCC1C(=O)NCCCN1CCOCC1 (centres unmarked) [CBK286903] | 131.582
74 | Cn1ncc2c(NCCN3CCOC3=O)nc(C(C)(C)C)nc21 [CBK307511] | 166.125
75 | CCCc1n[nH]c(=S)n1CC(=O)NCc1ccc(Oc2cc(C)ccc2C)nc1 [CBK297742] | 156.135
76 | CCCCCC1=NN(C(=O)c2ccccc2Br)C(O)(C(F)(F)F)C1 (centres unmarked) [CBK027223] | 104.719
77 | O=C(O)Cc1sc(NCCN2CCOCC2)nc1-c1ccccc1 [CBK200113T] | 138.443
78 | Cc1ccc(CN(Cc2[nH]cnc2C)C2CC(C)(C)NC(C)(C)C2)o1 [CBK283176] | 104.647
79 | O=C(/C=C/c1cn(C2CC(O)C(CO)O2)c(=O)[nH]c1=O)NCCCCCCNC(=O)C(F)(F)F (centres unmarked) [CBK201310] | 145.87
80 | O=C(CN1CCN(CC(=O)NC2CC2)CC1)Nc1cc(Cl)ccc1Cl [CBK306091] | 86.4211
